Source: publication PMC7793125
No constants are given. Whether binding was seen depends on the method and setting.

By UniProt entry, the sequences of proteins in these tests, tags left out. Residues count along the entry.
UniProt Q92841, residues 135-555: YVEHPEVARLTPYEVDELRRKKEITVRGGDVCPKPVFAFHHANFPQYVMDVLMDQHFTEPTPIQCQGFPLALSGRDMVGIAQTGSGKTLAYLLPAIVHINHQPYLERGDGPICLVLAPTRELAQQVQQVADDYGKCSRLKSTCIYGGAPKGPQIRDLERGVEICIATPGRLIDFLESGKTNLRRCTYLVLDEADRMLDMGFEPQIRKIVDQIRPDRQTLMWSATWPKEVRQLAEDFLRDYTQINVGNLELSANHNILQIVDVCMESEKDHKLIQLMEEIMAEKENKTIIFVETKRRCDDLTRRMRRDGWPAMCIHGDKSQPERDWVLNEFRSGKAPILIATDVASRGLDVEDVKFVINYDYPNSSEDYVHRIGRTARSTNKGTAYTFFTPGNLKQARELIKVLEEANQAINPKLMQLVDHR

Biological target: DDX17 helicase domain (DDX17_(135–555)) (human) (UniProt Q92841)
Assay: AUC; sedimentation velocity, protein at 0.5 OD280 (10.2 µM), 50 mM Tris, 150 mM NaCl, 5% glycerol, pH 8, 20 °C, 40,000 rpm; both purified

Q: How did the binding turn out when “DDX17 helicase domain (DDX17_(135–555)) (from UniProt Q92841 135-555) (domain or fragment)” was run?
A: no binding (tested: 10.2 µM)
